Results as given in publication PMC7819943, “Rice protein-binding microarrays: a tool to detect cis-acting elements near promoter regions in rice”.
The other results are listed elsewhere or left out.

The chains behind the UniProt entries cited, without tags or fusion partners.
UniProt Q0JBA9, entry or part of it: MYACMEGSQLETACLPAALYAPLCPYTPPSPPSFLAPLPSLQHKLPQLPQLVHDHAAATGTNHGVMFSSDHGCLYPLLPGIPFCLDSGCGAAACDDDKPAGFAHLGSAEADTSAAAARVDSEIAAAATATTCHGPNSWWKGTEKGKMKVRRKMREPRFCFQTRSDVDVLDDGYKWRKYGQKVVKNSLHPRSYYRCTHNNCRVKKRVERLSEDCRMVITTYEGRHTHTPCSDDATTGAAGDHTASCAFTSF

biological target: OsWRKY34 (Oryza sativa, UniProt Q0JBA9 1-250); test: protein-binding microarray (RPBM); PBS, 2% BSA, 51.3 ng/ul salmon testes DNA, 50 uM zinc acetate, 200 nM TF, 25 C, 1 h; high values mean tight binding; conditions: protein: recombinant; tags: N-terminal polyhistidine and DsRed monomer fusion (pET32a); label: CyDye5-dUTP incorporated in the synthesized complementary strand; 3' TTTTT single-stranded linker to array surface; dsDNA, one strand shown
How it was run: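 Transcription factors were made in E. coli BL21-CodonPlus as N-terminal fusions to a polyhistidine tag and DsRed, then purified on Ni–NTA. After primer extension with Cy5-dUTP and blocking with 2% BSA, a custom Agilent array was exposed for 1 h at 25 °C to 200 nM protein in PBS, 2% BSA, salmon testes DNA and 50 µM zinc acetate. Washed arrays were scanned on an Axon 4000B, and the binding signal is per-feature fluorescence intensity in arbitrary units.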

Sequence | binding signal
GGCCATCTGCTACCAGCTCGCGTTCTTAACTCCTCCCCTACGGAGTCACCTAGTGCAG | 8780 fluorescence intensity (a.u.)
CCCACCACTGCGAGAACCAAACAGATCGAGATACCTCTTTCGGAGTCACCTAGTGCAG | 9150 fluorescence intensity (a.u.)
GTTGTGTGTGTATGATAGGTTGATGTGATGGAAAAGGACCCGGAGTCACCTAGTGCAG | 9360 fluorescence intensity (a.u.)
CTCAAAAACTCTGTGCTTTCAAGGCATTTTCATTAGCGCCCGGAGTCACCTAGTGCAG | 8040 fluorescence intensity (a.u.)
TGTTCAGTACTACTTATATTTTGTTTCTTTTTACCGAGAACGGAGTCACCTAGTGCAG | 12000 fluorescence intensity (a.u.)
CCGTTTTTCATGTCAGCTTGCCGCCCTAGAGGTGGGCGGCCGGAGTCACCTAGTGCAG | 13800 fluorescence intensity (a.u.)
AATCAAATGCACATCATCAGTCATCACGTATTCACTTACACGGAGTCACCTAGTGCAG | 8230 fluorescence intensity (a.u.)
TGCACTCTGATCCGTTCGATTTTGCAGGGGAATTATCTGTCGGAGTCACCTAGTGCAG | 10600 fluorescence intensity (a.u.)
TGATCCCAGGTAGTATAATTATCTTGAATACTTGATTTTACGGAGTCACCTAGTGCAG | 8400 fluorescence intensity (a.u.)
CTCTCTCTCTCTTTGCACTACATTCTTGAATTCACAACCTCGGAGTCACCTAGTGCAG | 8840 fluorescence intensity (a.u.)
GTAAATTTGTTCTTGCTTTTCTACACTTTTTTTTTTGAACCGGAGTCACCTAGTGCAG | 9140 fluorescence intensity (a.u.)
TTGGGGTGGGGATAAGGCCGGTACCGGAGGCATGCCACATCGGAGTCACCTAGTGCAG | 8190 fluorescence intensity (a.u.)
TTTTTTCTTTTTTTTTTTGTTTTTTCTCGCCTTTTTTTCCCGGAGTCACCTAGTGCAG | 11900 fluorescence intensity (a.u.)
AGGGTTTGATGGGAGATGGATGTGTGGTGATGGCCTAGGACGGAGTCACCTAGTGCAG | 8180 fluorescence intensity (a.u.)
GTCATTTTAGCACTTCCCATGTTTATATTAATATTAATGACGGAGTCACCTAGTGCAG | 10500 fluorescence intensity (a.u.)
CTATTCGATTCCTAATTACTTTCTTTCTTGCATTATATACCGGAGTCACCTAGTGCAG | 10100 fluorescence intensity (a.u.)
AGCCACCATATCAAGCTGCCACCGTCACCTCCCTTGCCAGCGGAGTCACCTAGTGCAG | 9360 fluorescence intensity (a.u.)
ATTAGTATTTGTTTGTTGGTTGGCACTTACGGAGTTCTACCGGAGTCACCTAGTGCAG | 11000 fluorescence intensity (a.u.)
AGCTGCCAGTAGCTCCCAAAGCATACCCTACATCTGCATTCGGAGTCACCTAGTGCAG | 8240 fluorescence intensity (a.u.)
TCTGTGGGTTAGGGATGGTTATGTCTTATATTTTGGAATGCGGAGTCACCTAGTGCAG | 9480 fluorescence intensity (a.u.)
GTTGTTTCCACGGCCTTTTCTGCTCTTTTTTTCTTCAGCCCGGAGTCACCTAGTGCAG | 10700 fluorescence intensity (a.u.)
TATCTGTGAGAGTGTGACTGTGAATCTGTGATGCTATTTTCGGAGTCACCTAGTGCAG | 8480 fluorescence intensity (a.u.)
AAGTTACTTCCTTTTTGTCTTAAGTTACTTCTATAATATACGGAGTCACCTAGTGCAG | 8490 fluorescence intensity (a.u.)
AATTAAGGGAGGGGATTAACCGGTAATGGTCTTTGGAGCTCGGAGTCACCTAGTGCAG | 10200 fluorescence intensity (a.u.)
GCCGCGTGTTCCTGCCATTTCGGCGTGCTTGATTCCCTCACGGAGTCACCTAGTGCAG | 12800 fluorescence intensity (a.u.)
CAGGGAGGGTTCGTCAGCCTTTACCAAAGGATGGCTTACACGGAGTCACCTAGTGCAG | 8560 fluorescence intensity (a.u.)
CTTTGGTTCGTTTTGTTTTGGATTCGTTCGGATTCCTCTCCGGAGTCACCTAGTGCAG | 12100 fluorescence intensity (a.u.)

As entered above:
Under binding signal, AGCCACCATATCAAGCTGCCACCGTCACCTCCCTTGCCAGCGGAGTCACCTAGTGCAG has 9360 fluorescence intensity (a.u.)
Under binding signal, CCGTTTTTCATGTCAGCTTGCCGCCCTAGAGGTGGGCGGCCGGAGTCACCTAGTGCAG has 13800 fluorescence intensity (a.u.)

Following part

Sequence | binding signal
TTCTCCTTTCCACACTTGTGCTTCGTGTTCGTCGTGGTCTCGGAGTCACCTAGTGCAG | 8240 fluorescence intensity (a.u.)
TTTCATTGTTTGGCGCGCGAAATCTCTCTCATGGCGCGCCCGGAGTCACCTAGTGCAG | 9150 fluorescence intensity (a.u.)
ATGGTACAGCCCACTACTAGCTTCAATTCATCTATAGCCACGGAGTCACCTAGTGCAG | 8050 fluorescence intensity (a.u.)
TGAACGCGTTGACCTAAGTCGCCCATTATCAGACCCACTACGGAGTCACCTAGTGCAG | 9990 fluorescence intensity (a.u.)
GGATACATATTTTTATGGTTTGGGGATCTTAGACAGACTCCGGAGTCACCTAGTGCAG | 10600 fluorescence intensity (a.u.)
CCGTTTCGTCGTCCTCCTGATGAGCGGTGGTCCTCGCGCGCGGAGTCACCTAGTGCAG | 8160 fluorescence intensity (a.u.)
GCCACACTCCCTCAGCAACGTGTTCATCTCTGCACCACCACGGAGTCACCTAGTGCAG | 10800 fluorescence intensity (a.u.)
GCGTGGTTGATTTTTAGTCTTGTCGACTTCGACTTTAAGCCGGAGTCACCTAGTGCAG | 9120 fluorescence intensity (a.u.)
CCCGCATCGCCTCCACCACTGCGGCCTTGCACCACCACCGCGGAGTCACCTAGTGCAG | 9440 fluorescence intensity (a.u.)
CTCATTTTCCGCGCGTACGCTTTTCAAACTGCTAAACGGTCGGAGTCACCTAGTGCAG | 10400 fluorescence intensity (a.u.)
AAAGCAGGGGACTGGGTAAGGTGAGTGCGGCGGGTGGGCCCGGAGTCACCTAGTGCAG | 8920 fluorescence intensity (a.u.)
GATCACCCGCCCCAAAACCCTCGCCGTCGCGGCCGCCATGCGGAGTCACCTAGTGCAG | 8560 fluorescence intensity (a.u.)
TTTGTTCTTTGTTGTTCTCTTGTGCACAGGTGAGCAAGAGCGGAGTCACCTAGTGCAG | 8350 fluorescence intensity (a.u.)
CATTCGTAGGAATTTATATACAACGTTTGACCTTTTTCTTCGGAGTCACCTAGTGCAG | 11500 fluorescence intensity (a.u.)
CCCACCGCTGTGTCCTCGATCTTCTCTGTCTGTACTGGTCCGGAGTCACCTAGTGCAG | 9090 fluorescence intensity (a.u.)
TCACCACCAACTTTCATTCAGTACAAACACCATTACTAAACGGAGTCACCTAGTGCAG | 8070 fluorescence intensity (a.u.)
TTGGCGCGCAATGTTGTGCTCTTGAATTATGCTGTCTAAACGGAGTCACCTAGTGCAG | 8050 fluorescence intensity (a.u.)
TTCCTGGTTGTTTTGCTCTTCTTGGTTTTCTTGATTTCTTCGGAGTCACCTAGTGCAG | 9990 fluorescence intensity (a.u.)
CCGTTTATGCTCTTGCTCTTGCTCTCGATCGCTTGTACATCGGAGTCACCTAGTGCAG | 12700 fluorescence intensity (a.u.)
GTCAGCGTACAAGAGTGCAATTAGATCGTGCCATTTCAGCCGGAGTCACCTAGTGCAG | 9030 fluorescence intensity (a.u.)
GCCTCGCCTCGCCGCCGGCGGCCACCGTCTCCGCCGCCTCCGGAGTCACCTAGTGCAG | 8800 fluorescence intensity (a.u.)
TCGCCCATGATCACTTGAAACACCTCCCTTGCTCTTCATGCGGAGTCACCTAGTGCAG | 8360 fluorescence intensity (a.u.)
CTAATTGGACATATGACTATTTTTGTTCAAACTATATTTCCGGAGTCACCTAGTGCAG | 8230 fluorescence intensity (a.u.)
GTAGTTTTCATTAATGTTTAATCAGCTCTATATATTTGAACGGAGTCACCTAGTGCAG | 9290 fluorescence intensity (a.u.)
AGATGGCTTCCCTGCAGTGTTTTTTGTTTTTATTTTTACGCGGAGTCACCTAGTGCAG | 9980 fluorescence intensity (a.u.)
GCACATGACTCACACATTTGTGCTCGGGACTATTATATTGCGGAGTCACCTAGTGCAG | 8450 fluorescence intensity (a.u.)
CTCCACCACCTGCGCGCCGCGGCCAGCGCCGCAGTAGACCCGGAGTCACCTAGTGCAG | 9010 fluorescence intensity (a.u.)
